Data from article doi:10.1101/275560.

The chains behind the UniProt entries cited, without tags or fusion partners.
UniProt Q9MAM4: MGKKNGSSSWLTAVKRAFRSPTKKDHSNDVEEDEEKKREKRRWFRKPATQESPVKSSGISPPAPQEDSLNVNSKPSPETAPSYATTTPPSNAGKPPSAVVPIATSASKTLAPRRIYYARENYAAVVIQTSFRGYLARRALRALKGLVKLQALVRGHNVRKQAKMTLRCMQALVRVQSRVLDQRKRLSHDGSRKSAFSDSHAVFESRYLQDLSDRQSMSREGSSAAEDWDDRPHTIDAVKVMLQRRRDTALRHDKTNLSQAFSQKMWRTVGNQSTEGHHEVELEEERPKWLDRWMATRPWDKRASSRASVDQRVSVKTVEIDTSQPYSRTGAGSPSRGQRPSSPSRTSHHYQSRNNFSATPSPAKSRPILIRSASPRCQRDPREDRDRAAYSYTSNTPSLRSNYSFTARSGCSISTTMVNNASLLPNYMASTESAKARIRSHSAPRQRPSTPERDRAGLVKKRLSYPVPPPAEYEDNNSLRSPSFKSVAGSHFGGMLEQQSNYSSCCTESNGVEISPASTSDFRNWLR

Molecular target: AtIQD18-sYFP (pIQD18::gIQD18:sYFP) (Arabidopsis thaliana) (UniProt Q9MAM4)
Experiment: affinity purification with mass spectrometry

B1: SPIRAL2 (SPR2) protein, endogenous (protein, UniProt Q9T041 1-864)
chain: MSTPTTSGSAAKPTRPARSSSLATRSCSNSGSLTSFQAMVELKQKILTSISKLADRDTYQIAVEDLEKTIQSLTPETLPMFLNCLYDSCSDPKPAVKKECLHLLSYVCSLHCDSTAAHLTKIIAQIVKRLKDSDSGVRDACRDTIGALSGIYLKGKEEGTNTGSASLAVGLFVKPLFEAMGEQNKVVQSGASMCMARMVESAASPPVTSFQKLCPRICKLLSNSSFLAKASLLPVVSSLSQVGAIAPQSLESLLESIHDCLGSTDWVTRKAAAETLTALASHSSGLIKEKTDSTITVLETCRFDKIKPVRESVTEALQLWKKISGKYVDGASDDSKLSASEQLGSEKNGEKRSNLADLMKKEASDGSTLSPDSASKGKGCFPEKAVGLLKKKAPVLSDKDFNPEFFQRLERRQSVEVVVPRRCKNNDEEESGLDDLNAMGSSNRLKNTQADDKQVKGRFDGNGSQARTSGDDKAGVVNGKETPGHHAPVSNTDNQSEGSFTSNRGNWSAIQRQLLQLERQQTNLMNMLQEFIGGSHDSMVTLEGRVRGLERIVEDMARDLSISSGRRANLTAGFGKYNSFANYPTGKYNGRAPGERGSQTDGAMRGRMWNSDMADDWFIPPHAASRNGQAGPRRSPRSEQYENEHMGNGRRGWDNKASGTIRFGEGPSARSVWQASKDEATLEAIRVAGEDGAVPRPTRVAVAPEAEAMGDDDNEGQERDPIWVSWSNAMHSLRVGDIDAAYAEVLCAGDQHLVIKLMDKTGPSLDQMSNEIANEALNFISQFLLDHSLYDICLSWSQQLLELVLQDGADTFGVPMELKTEILYNLQDACSTMDPPEDWEGPAPEQLVVQLASVWEIDLQQFDK
For B1, the binding was “binds”.

These are yes or no findings as the source states them, for the method shown. In cells and extracts the contact can be indirect. A yes stands for co-enrichment or nearness to the bait. Other partners may have been found.
